No constants are given. Whether binding was seen depends on the method and setting. Binding calls can cover weak binding; strength is not graded here. Ends that are not written are not given here.

Results on 69 molecules are retold here after patent US20230312680A1.

One assay concerns the target HLA-A*03:01 (human). The assay is described as follows: UV-ligand exchange, b2m ELISA; grade of exchange yield. (An ELISA detects its analyte on a solid surface through an enzyme-linked reagent.)
The target of the next assay is HLA-B*44:02 (human). The assay is described as above.

B1: … (SEQ ID No 26) (peptide)
peptide: RISEYLLEK
In the case of B1, in the assay with HLA-A*03:01 (human), the binding entry is “binds”.

B2: … (SEQ ID No 281) (peptide)
peptide: RAKELEATF
In the case of B2, the binding result with HLA-A*03:01 (human) was “binds”.

B3: … (SEQ ID No 101) (peptide)
peptide: RVFTSSIKTK
As to B3, the binding entry with HLA-A*03:01 (human) is “binds”.

B4: … (SEQ ID No 93) (peptide)
peptide: KILEEHTNK
With B4, the binding entry in the assay with HLA-A*03:01 (human) is “binds”.

B5: … (SEQ ID No 104) (peptide)
peptide: VLADSVTTK
As for B5, in the assay with HLA-A*03:01 (human), the binding result is listed as “binds”.

B6: … (SEQ ID No 262) (peptide)
peptide: RSRLNPLVQR
On to B6, for which, in the assay with HLA-A*03:01 (human), the binding entry is “binds”.

B7: … (SEQ ID No 285) (peptide)
peptide: GTVNPTVGK
For the molecule B7, the binding result with HLA-A*03:01 (human) is “binds”.

B8: … (SEQ ID No 256) (peptide)
peptide: RTEEVLLTFK
Turning to B8, the binding entry in the assay with HLA-A*03:01 (human) is recorded as “binds”.

B9: … (SEQ ID No 274) (peptide)
peptide: KTFPASTVF
For the molecule B9, the binding result in the assay with HLA-A*03:01 (human) is “binds”.

B10: … (SEQ ID No 273) (peptide)
peptide: RVNAIPFTY
Take B10: the binding result with HLA-A*03:01 (human) is “binds”.

B11: SDSQVRAF (SEQ ID No 433) (peptide)
peptide: SDSQVRAF
As for B11, the binding entry with HLA-B*44:02 (human) was “binds”.

B12: … (SEQ ID No 109) (peptide)
peptide: KTFTIKRFLAK
In the case of B12, the binding result with HLA-A*03:01 (human) is given as “binds”.

B13: … (SEQ ID No 27) (peptide)
peptide: VLYGPAGLGK
As for B13, in the assay with HLA-A*03:01 (human), the binding entry is “binds”.

B14: … (SEQ ID No 261) (peptide)
peptide: HTFGLFYQR
As for B14, the binding result with HLA-A*03:01 (human) is listed as “binds”.

B15: … (SEQ ID No 28) (peptide)
peptide: KTYETNLEIKK
For B15, the binding entry with HLA-A*03:01 (human) is listed as “binds”.

B16: … (SEQ ID No 431) (peptide)
peptide: AEQDPDELNKA
Regarding B16, the binding entry with HLA-B*44:02 (human) was “binds”.

B17: … (SEQ ID No 85) (peptide)
peptide: VLLGSLFSRK
On to B17, for which, in the assay with HLA-A*03:01 (human), the binding entry is on record as “binds”.

B18: PEKTTHSF (SEQ ID No 426) (peptide)
peptide: PEKTTHSF
B18: the binding entry with HLA-B*44:02 (human) is “binds”.

B19: … (SEQ ID No 89) (peptide)
peptide: RVAELLLLH
With B19, the binding result in the assay with HLA-A*03:01 (human) was “binds”.

B20: … (SEQ ID No 275) (peptide)
peptide: STTFPTLTK
B20: the binding entry in the assay with HLA-A*03:01 (human) is “binds”.

B21: … (SEQ ID No 23) (peptide)
peptide: GMMKGGIRK
With B21, the binding entry with HLA-A*03:01 (human) was “binds”.

B22: … (SEQ ID No 437) (peptide)
peptide: TEAVVTNEL
Take B22: the binding entry with HLA-B*44:02 (human) was “binds”.

B23: … (SEQ ID No 425) (peptide)
peptide: SEVPLPMAI
With B23, in the assay with HLA-B*44:02 (human), the binding entry is “binds”.

B24: … (SEQ ID No 83) (peptide)
peptide: GTYAHTVNR
Consider B24, for which the binding result in the assay with HLA-A*03:01 (human) is “binds”.

B25: … (SEQ ID No 271) (peptide)
peptide: RMFADDLHNLNK
In the case of B25, the binding entry with HLA-A*03:01 (human) is recorded as “binds”.

B26: … (SEQ ID No 276) (peptide)
peptide: VSKTTGMEF
For the molecule B26, the binding result in the assay with HLA-A*03:01 (human) is given as “binds”.

B27: … (SEQ ID No 102) (peptide)
peptide: SVLTSSLVK
For the molecule B27, the binding entry in the assay with HLA-A*03:01 (human) is on record as “binds”.

B28: … (SEQ ID No 279) (peptide)
peptide: SVSSETTKIKR
On to B28, for which the binding result in the assay with HLA-A*03:01 (human) is “binds”.

B29: … (SEQ ID No 280) (peptide)
peptide: SVSGVKTTF
In the case of B29, the binding entry with HLA-A*03:01 (human) is on record as “binds”.

B30: … (SEQ ID No 260) (peptide)
peptide: GTNTVILEY
As to B30, the binding entry with HLA-A*03:01 (human) was “binds”.

B31: … (SEQ ID No 269) (peptide)
peptide: RLKGDAWVYK
As to B31, the binding entry with HLA-A*03:01 (human) was “binds”.

B32: … (SEQ ID No 267) (peptide)
peptide: VTDLISPRK
For the molecule B32, in the assay with HLA-A*03:01 (human), the binding entry is reported as “binds”.

B33: … (SEQ ID No 435) (peptide)
peptide: REEFVSIDHL
Consider B33, for which the binding result with HLA-B*44:02 (human) is given as “binds”.

B34: … (SEQ ID No 429) (peptide)
peptide: REKFIASVI
With B34, in the assay with HLA-B*44:02 (human), the binding result is reported as “binds”.

B35: … (SEQ ID No 266) (peptide)
peptide: ISYSGQFLVK
Regarding B35, the binding entry with HLA-A*03:01 (human) is “binds”.

B36: … (SEQ ID No 110) (peptide)
peptide: SAAPPSYFR
Consider B36, for which, in the assay with HLA-A*03:01 (human), the binding entry is “binds”.

B37: … (SEQ ID No 434) (peptide)
peptide: KEAIREHQM
With B37, the binding entry in the assay with HLA-B*44:02 (human) was “binds”.

B38: … (SEQ ID No 259) (peptide)
peptide: KTLELRVAY
Consider B38, for which the binding result with HLA-A*03:01 (human) was “binds”.

B39: … (SEQ ID No 277) (peptide)
peptide: TTALKTTSR
As to B39, the binding entry with HLA-A*03:01 (human) is “binds”.

B40: … (SEQ ID No 30) (peptide)
peptide: ALEVAHRLK
In the case of B40, the binding entry with HLA-A*03:01 (human) is listed as “binds”.

B41: … (SEQ ID No 286) (peptide)
peptide: TVAPPQGVVK
On to B41, for which the binding result with HLA-A*03:01 (human) is “binds”.

B42: … (SEQ ID No 88) (peptide)
peptide: VVHAVFALK
Regarding B42, the binding entry with HLA-A*03:01 (human) is listed as “binds”.

B43: … (SEQ ID No 24) (peptide)
peptide: SMYYPLQLK
On to B43, for which the binding entry with HLA-A*03:01 (human) is recorded as “binds”.

B44: … (SEQ ID No 87) (peptide)
peptide: AVAPPTPASK
Regarding B44, the binding result in the assay with HLA-A*03:01 (human) is given as “binds”.

B45: … (SEQ ID No 427) (peptide)
peptide: HESSSHHDL
For the molecule B45, the binding entry with HLA-B*44:02 (human) is “binds”.

B46: … (SEQ ID No 257) (peptide)
peptide: VTADHSHVF
On to B46, for which the binding entry with HLA-A*03:01 (human) is “binds”.

B47: … (SEQ ID No 90) (peptide)
peptide: KVAGERYVYK
For the molecule B47, the binding result in the assay with HLA-A*03:01 (human) is “binds”.

B48: … (SEQ ID No 84) (peptide)
peptide: KLQPAQTAAK
As for B48, in the assay with HLA-A*03:01 (human), the binding result is on record as “binds”.

B49: … (SEQ ID No 278) (peptide)
peptide: NLSSITHER
Take B49: the binding result with HLA-A*03:01 (human) is on record as “binds”.

B50: … (SEQ ID No 263) (peptide)
peptide: SSSSATISK
For B50, the binding entry with HLA-A*03:01 (human) is given as “binds”.

B51: … (SEQ ID No 287) (peptide)
peptide: RRIHTGEKPYK
Take B51: the binding result with HLA-A*03:01 (human) was “binds”.

B52: … (SEQ ID No 20) (peptide)
peptide: RMASPVNVK
With B52, the binding entry in the assay with HLA-A*03:01 (human) is on record as “binds”.

B53: … (SEQ ID No 258) (peptide)
peptide: GAYAHTVNR
In the case of B53, the binding result with HLA-A*03:01 (human) is recorded as “binds”.

B54: … (SEQ ID No 91) (peptide)
peptide: RSLRYYYEK
Regarding B54, the binding entry with HLA-A*03:01 (human) is reported as “binds”.

B55: … (SEQ ID No 105) (peptide)
peptide: RLFSWLVNR
On to B55, for which the binding entry with HLA-A*03:01 (human) is reported as “binds”.

B56: … (SEQ ID No 283) (peptide)
peptide: IVQEPTEEK
Regarding B56, the binding entry in the assay with HLA-A*03:01 (human) is reported as “binds”.

B57: … (SEQ ID No 265) (peptide)
peptide: QIHDHVNPK
B57: in the assay with HLA-A*03:01 (human), the binding result is “binds”.

B58: … (SEQ ID No 264) (peptide)
peptide: AIKVIPTVFK
As to B58, in the assay with HLA-A*03:01 (human), the binding entry is “binds”.

B59: … (SEQ ID No 438) (peptide)
peptide: SEVDSPNVL
Turning to B59, the binding result with HLA-B*44:02 (human) is “binds”.

B60: … (SEQ ID No 270) (peptide)
peptide: AVFNPRFYRTY
As for B60, in the assay with HLA-A*03:01 (human), the binding entry is on record as “binds”.

B61: … (SEQ ID No 86) (peptide)
peptide: VVLLGSLFSRK
As for B61, the binding result in the assay with HLA-A*03:01 (human) is given as “binds”.

B62: … (SEQ ID No 106) (peptide)
peptide: AAFVPLLLK
Turning to B62, the binding result with HLA-A*03:01 (human) is “binds”.

B63: … (SEQ ID No 284) (peptide)
peptide: KSLIKSWKK
Regarding B63, the binding result with HLA-A*03:01 (human) is given as “binds”.

B64: … (SEQ ID No 436) (peptide)
peptide: REPGDIFSEL
Take B64: the binding entry with HLA-B*44:02 (human) was “binds”.

B65: … (SEQ ID No 100) (peptide)
peptide: RLFTSPIMTK
Consider B65, for which the binding result in the assay with HLA-A*03:01 (human) was “binds”.

B66: … (SEQ ID No 21) (peptide)
peptide: AVRKPIVLK
As to B66, in the assay with HLA-A*03:01 (human), the binding result is recorded as “binds”.

B67: … (SEQ ID No 22) (peptide)
peptide: SLKERNPLK
B67: in the assay with HLA-A*03:01 (human), the binding entry is reported as “binds”.

B68: … (SEQ ID No 107) (peptide)
peptide: RLQEWKALK
Take B68: the binding entry with HLA-A*03:01 (human) is listed as “binds”.

B69: … (SEQ ID No 272) (peptide)
peptide: RQPERTILRPR
With B69, the binding result with HLA-A*03:01 (human) was “binds”.
